Laboratory results as given in the supplement of paper PMC12823440, “Inhibitors supercharge kinase turnover through native proteolytic circuits” (Nature, 2025).
This is one part of the list. Hit calls seldom repeat between salt and free forms of one compound.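 Kinases were expressed as nanoluciferase fusions in K562 cells and luminescence was read every 4 h between 2 and 18 h as percent of control, DMSO set to 100% and a positive control to 0%. A time point counts as decreased when the signal drops significantly (2 sigma). The hit call is the authors' own, does not follow from the count of time points alone, and its rule is not shown.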

Protein sequences, listed by entry. Tags and fused reporters are not part of them. Lines headed by an entry give the natural chain unless they say otherwise; changes in a name come on top.
UniProt P06241, whole entry, looked up: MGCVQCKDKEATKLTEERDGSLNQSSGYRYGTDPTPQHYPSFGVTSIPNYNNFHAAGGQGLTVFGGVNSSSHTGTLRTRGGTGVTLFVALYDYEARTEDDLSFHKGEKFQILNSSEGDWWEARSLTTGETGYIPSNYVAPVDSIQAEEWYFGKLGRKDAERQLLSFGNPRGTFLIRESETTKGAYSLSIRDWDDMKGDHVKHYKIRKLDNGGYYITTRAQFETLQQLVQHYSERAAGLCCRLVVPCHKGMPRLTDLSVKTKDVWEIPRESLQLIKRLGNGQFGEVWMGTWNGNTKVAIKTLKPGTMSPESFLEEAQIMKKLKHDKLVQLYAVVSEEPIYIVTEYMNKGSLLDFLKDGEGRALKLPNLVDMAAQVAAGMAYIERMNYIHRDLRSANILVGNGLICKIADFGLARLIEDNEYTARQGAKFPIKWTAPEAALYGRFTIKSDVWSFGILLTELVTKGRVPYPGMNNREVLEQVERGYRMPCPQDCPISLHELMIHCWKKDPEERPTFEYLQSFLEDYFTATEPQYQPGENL
UniProt P49840: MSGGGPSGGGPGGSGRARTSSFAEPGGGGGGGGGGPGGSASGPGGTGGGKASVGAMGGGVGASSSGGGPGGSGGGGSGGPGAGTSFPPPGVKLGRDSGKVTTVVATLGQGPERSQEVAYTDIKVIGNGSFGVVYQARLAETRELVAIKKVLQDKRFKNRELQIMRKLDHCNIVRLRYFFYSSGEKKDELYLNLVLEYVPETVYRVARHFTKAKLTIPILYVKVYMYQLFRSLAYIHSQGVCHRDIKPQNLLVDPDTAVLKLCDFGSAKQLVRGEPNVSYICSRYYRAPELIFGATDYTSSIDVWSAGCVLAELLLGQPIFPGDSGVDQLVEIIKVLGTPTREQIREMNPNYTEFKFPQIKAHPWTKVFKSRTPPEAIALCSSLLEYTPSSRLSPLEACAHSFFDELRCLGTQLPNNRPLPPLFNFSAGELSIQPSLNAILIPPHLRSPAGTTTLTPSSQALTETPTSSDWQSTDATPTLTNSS
UniProt P53667: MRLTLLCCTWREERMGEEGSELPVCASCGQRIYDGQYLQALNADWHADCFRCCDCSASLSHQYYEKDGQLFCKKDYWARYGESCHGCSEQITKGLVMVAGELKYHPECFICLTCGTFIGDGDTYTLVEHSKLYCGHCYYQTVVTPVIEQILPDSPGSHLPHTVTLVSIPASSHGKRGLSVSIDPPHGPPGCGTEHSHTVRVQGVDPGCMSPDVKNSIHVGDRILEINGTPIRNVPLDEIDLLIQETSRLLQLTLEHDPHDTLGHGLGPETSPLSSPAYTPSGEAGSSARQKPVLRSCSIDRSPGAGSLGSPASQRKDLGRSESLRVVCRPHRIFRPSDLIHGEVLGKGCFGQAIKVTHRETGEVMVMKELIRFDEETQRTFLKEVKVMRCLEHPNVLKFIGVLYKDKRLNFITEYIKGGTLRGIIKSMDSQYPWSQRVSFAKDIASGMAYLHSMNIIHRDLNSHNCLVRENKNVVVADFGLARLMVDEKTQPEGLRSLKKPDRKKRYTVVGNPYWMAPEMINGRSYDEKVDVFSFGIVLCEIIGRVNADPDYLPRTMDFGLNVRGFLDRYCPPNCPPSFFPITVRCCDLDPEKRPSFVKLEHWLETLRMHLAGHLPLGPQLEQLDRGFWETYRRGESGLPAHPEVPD
UniProt P53671: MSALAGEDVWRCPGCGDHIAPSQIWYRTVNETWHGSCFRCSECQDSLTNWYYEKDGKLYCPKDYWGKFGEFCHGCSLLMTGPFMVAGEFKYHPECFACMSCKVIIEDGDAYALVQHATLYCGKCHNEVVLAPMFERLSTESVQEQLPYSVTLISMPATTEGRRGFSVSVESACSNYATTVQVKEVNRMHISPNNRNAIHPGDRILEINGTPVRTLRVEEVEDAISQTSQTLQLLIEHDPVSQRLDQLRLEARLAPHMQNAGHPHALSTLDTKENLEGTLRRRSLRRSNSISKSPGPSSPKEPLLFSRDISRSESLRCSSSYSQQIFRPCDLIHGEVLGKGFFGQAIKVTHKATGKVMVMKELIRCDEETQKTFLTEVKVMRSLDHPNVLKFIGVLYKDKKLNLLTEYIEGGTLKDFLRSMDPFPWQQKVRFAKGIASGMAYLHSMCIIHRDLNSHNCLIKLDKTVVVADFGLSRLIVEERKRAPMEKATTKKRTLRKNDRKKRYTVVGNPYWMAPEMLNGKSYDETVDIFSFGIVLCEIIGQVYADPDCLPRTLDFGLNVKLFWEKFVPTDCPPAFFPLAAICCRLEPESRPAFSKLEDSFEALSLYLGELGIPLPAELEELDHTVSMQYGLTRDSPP
UniProt Q8IWU2: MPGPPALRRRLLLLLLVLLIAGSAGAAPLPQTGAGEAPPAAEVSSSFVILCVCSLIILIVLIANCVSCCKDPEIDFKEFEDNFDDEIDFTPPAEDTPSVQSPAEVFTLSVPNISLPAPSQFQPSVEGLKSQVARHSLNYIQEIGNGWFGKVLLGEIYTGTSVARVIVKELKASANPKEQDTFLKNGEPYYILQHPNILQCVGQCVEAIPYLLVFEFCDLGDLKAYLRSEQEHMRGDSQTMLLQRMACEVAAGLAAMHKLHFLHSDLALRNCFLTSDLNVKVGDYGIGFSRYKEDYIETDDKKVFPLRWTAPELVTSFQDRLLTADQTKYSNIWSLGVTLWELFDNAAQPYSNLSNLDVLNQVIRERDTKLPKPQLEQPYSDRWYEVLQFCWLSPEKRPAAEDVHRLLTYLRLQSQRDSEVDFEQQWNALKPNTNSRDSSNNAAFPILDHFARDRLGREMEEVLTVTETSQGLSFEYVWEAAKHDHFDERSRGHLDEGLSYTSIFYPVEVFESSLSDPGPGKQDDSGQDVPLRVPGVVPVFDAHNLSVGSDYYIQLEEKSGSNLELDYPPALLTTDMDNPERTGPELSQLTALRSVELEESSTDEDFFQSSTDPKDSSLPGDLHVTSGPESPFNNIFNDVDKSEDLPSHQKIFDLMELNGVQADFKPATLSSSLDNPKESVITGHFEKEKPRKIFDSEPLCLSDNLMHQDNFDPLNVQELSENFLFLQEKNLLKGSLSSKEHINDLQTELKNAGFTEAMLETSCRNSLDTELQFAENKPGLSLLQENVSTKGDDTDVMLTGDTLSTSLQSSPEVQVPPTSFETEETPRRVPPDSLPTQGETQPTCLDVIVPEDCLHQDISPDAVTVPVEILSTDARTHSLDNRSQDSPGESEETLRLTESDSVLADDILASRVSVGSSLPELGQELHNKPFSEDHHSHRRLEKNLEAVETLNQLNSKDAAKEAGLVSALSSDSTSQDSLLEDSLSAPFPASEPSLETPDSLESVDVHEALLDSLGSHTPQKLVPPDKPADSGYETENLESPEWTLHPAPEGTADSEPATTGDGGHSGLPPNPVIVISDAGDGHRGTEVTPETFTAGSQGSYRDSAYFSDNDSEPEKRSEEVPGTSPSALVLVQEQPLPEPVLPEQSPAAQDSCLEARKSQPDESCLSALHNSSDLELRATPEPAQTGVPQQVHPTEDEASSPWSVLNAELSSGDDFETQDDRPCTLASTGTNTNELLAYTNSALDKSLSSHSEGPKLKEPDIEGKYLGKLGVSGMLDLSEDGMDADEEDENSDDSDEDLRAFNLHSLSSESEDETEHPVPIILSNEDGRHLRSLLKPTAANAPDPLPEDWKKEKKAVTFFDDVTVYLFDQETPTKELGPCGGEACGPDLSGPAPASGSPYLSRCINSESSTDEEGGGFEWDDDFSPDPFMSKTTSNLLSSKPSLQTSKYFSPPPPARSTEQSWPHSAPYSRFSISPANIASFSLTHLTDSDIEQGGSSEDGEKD
UniProt P07948: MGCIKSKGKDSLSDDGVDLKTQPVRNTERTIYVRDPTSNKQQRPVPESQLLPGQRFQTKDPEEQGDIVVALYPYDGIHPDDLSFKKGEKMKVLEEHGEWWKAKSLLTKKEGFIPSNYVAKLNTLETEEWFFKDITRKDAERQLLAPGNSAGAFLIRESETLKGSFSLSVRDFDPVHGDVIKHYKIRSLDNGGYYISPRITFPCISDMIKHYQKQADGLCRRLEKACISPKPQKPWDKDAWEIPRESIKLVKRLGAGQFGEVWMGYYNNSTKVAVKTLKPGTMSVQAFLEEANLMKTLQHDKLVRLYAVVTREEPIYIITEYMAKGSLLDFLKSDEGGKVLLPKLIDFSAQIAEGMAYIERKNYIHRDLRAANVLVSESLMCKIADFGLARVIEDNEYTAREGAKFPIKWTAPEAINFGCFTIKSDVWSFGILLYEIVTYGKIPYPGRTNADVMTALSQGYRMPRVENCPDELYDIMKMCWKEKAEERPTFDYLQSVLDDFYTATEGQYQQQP
UniProt Q12851: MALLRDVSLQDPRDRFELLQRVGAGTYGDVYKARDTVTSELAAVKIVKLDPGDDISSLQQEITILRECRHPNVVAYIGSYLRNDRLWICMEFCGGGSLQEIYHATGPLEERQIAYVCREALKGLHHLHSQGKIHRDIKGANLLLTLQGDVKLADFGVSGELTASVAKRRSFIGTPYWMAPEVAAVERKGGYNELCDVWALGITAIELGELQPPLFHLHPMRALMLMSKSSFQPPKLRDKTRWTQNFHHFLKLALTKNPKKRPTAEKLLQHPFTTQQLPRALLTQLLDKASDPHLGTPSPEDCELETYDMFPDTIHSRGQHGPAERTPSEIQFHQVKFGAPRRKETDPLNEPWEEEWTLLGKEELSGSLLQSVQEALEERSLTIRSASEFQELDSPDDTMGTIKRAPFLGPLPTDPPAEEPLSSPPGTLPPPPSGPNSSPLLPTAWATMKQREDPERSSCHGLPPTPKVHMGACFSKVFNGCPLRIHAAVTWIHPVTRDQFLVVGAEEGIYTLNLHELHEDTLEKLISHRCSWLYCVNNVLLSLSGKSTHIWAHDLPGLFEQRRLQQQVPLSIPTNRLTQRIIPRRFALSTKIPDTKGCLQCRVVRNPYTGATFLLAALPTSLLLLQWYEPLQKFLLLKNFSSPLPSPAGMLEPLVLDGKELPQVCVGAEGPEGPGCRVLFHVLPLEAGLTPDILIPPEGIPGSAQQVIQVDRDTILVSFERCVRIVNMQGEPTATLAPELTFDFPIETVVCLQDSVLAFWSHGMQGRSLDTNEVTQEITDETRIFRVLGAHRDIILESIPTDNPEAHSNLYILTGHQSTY
UniProt P28482, whole entry: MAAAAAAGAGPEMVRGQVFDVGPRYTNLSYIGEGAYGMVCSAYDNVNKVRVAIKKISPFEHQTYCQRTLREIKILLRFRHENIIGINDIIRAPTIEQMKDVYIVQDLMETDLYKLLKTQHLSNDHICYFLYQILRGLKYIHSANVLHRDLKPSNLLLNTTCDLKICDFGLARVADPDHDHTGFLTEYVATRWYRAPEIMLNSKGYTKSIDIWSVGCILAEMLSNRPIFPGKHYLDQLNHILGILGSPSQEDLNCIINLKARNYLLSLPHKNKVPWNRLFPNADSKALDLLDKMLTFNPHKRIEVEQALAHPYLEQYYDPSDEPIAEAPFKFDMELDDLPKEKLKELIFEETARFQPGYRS
UniProt P31152, whole entry: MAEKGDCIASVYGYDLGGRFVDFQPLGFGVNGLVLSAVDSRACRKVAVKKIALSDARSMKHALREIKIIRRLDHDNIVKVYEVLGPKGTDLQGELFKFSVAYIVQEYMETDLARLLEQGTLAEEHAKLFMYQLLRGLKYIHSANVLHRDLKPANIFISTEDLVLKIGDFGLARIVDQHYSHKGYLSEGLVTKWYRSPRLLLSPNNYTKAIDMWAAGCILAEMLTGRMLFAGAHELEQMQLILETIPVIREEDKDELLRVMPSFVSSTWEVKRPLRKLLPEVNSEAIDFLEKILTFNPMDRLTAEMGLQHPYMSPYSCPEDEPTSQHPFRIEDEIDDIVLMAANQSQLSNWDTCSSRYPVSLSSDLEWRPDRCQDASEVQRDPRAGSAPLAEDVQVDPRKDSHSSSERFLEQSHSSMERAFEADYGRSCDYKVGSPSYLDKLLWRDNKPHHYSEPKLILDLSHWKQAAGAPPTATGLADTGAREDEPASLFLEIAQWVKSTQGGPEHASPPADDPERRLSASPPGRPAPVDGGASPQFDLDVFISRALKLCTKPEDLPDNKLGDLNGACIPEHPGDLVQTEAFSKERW
UniProt Q9BUB5: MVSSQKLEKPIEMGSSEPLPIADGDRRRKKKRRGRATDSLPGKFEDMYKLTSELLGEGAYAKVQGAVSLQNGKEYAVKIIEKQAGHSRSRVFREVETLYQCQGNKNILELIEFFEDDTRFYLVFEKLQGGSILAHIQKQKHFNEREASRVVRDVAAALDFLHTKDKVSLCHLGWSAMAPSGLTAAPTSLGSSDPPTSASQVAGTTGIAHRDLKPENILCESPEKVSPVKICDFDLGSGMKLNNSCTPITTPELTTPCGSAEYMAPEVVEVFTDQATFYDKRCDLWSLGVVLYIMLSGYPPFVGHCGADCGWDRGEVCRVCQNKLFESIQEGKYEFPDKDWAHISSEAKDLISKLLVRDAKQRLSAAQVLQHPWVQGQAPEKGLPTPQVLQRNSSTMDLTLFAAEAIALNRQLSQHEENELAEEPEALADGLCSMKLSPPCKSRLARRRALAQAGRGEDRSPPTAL

Experiments:
Test in all cases: number of time points (of 5) at which kinase-Nluc abundance scored as decreased, DMSO-normalised (count); higher = more persistent destabilization
Settings in all cases: K562; 2-18 h
FLT3 = FLT3 (UniProt P36888)
FYN = FYN (UniProt P06241)
GSK3A = GSK3A (UniProt P49840)
HER2 = HER2 (UniProt P04626)
INSRR = INSRR (UniProt P14616)
IRAK3 = IRAK3 (UniProt Q9Y616)
JAK1 = JAK1 (UniProt P23458)
LCK = LCK (UniProt P06239)
LIMK1 = LIMK1 (UniProt P53667)
LIMK2 = LIMK2 (UniProt P53671)
LMTK2 = LMTK2 (UniProt Q8IWU2)
LYN = LYN (UniProt P07948)
MAP2K1 = MAP2K1 (UniProt Q02750)
MAP2K2 = MAP2K2 (UniProt P36507)
MAP4K2 = MAP4K2 (UniProt Q12851)
MAPK1 = MAPK1 (UniProt P28482)
MAPK4 = MAPK4 (UniProt P31152)
MAPKAPK2 = MAPKAPK2 (UniProt P49137)
MKNK1 = MKNK1 (UniProt Q9BUB5)
NTRK2 = NTRK2 (UniProt Q16620)

Measured: number of time points

O=C(CCc1ccc2n1[B-](F)(F)[N+]1=C(c3ccc[nH]3)C=CC1=C2)ON1C(=O)CCC1=O [Py-BODIPY-NHS ester] (2.5 µM)
0: FLT3 | FYN | GSK3A | HER2 | INSRR | IRAK3 | JAK1 | LCK | LIMK1 | LIMK2 | LMTK2 | LYN | MAP2K1 | MAP2K2 | MAP4K2 | MAPK1 | MAPK4 | MAPKAPK2 | MKNK1 | NTRK2

CNC[C@@H](NC(=O)c1ccc(-c2nc([C@H]3CC[C@H](O)[C@@H](F)C3)cnc2N)cc1F)c1cc(F)cc(Br)c1 [Rineterkib] (10 µM)
0: FLT3 | FYN | GSK3A | HER2 | INSRR | IRAK3 | JAK1 | LCK | LIMK1 | LIMK2 | LMTK2 | LYN | MAP2K1 | MAP2K2 | MAP4K2 | MAPK1 | MAPK4 | MAPKAPK2 | MKNK1 | NTRK2

CN(c1ccc(C(F)(F)F)cc1)S(=O)(=O)c1ccc(C(=O)Nc2nc(-c3ccccn3)cs2)cc1 (2.5 µM)
0: FLT3 | FYN | GSK3A | HER2 | INSRR | IRAK3 | JAK1 | LCK | LIMK1 | LIMK2 | LMTK2 | LYN | MAP2K1 | MAP2K2 | MAP4K2 | MAPK1 | MAPK4 | MAPKAPK2 | MKNK1 | NTRK2

CNC(=O)c1ccc(-c2cnc3ncc(Cc4ccc5ncccc5c4)n3n2)cc1F [Capmatinib] (10 µM)
0: FLT3 | FYN | GSK3A | HER2 | INSRR | IRAK3 | JAK1 | LCK | LIMK1 | LIMK2 | LMTK2 | LYN | MAP2K1 | MAP2K2 | MAP4K2 | MAPK1 | MAPK4 | MAPKAPK2 | MKNK1 | NTRK2

CCOC(=O)C1=C[C@]2(CC)CCCN3CCc4c(n1c1ccccc41)[C@@H]32 [Vinpocetine] (10 µM)
0: FLT3 | FYN | GSK3A | HER2 | INSRR | IRAK3 | JAK1 | LCK | LIMK1 | LIMK2 | LMTK2 | LYN | MAP2K1 | MAP2K2 | MAP4K2 | MAPK1 | MAPK4 | MAPKAPK2 | MKNK1 | NTRK2

Some of these compounds in order of number of heavy atoms, descending.
CN(c1ccc(C(F)(F)F)cc1)S(=O)(=O)c1ccc(C(=O)Nc2nc(-c3ccccn3)cs2)cc1 (2.5 µM)
0: FLT3 | FYN | GSK3A | HER2 | INSRR | IRAK3 | JAK1 | LCK | LIMK1 | LIMK2 | LMTK2 | LYN | MAP2K1 | MAP2K2 | MAP4K2 | MAPK1 | MAPK4 | MAPKAPK2 | MKNK1 | NTRK2

CNC(=O)c1ccc(-c2cnc3ncc(Cc4ccc5ncccc5c4)n3n2)cc1F [Capmatinib] (10 µM)
0: FLT3 | FYN | GSK3A | HER2 | INSRR | IRAK3 | JAK1 | LCK | LIMK1 | LIMK2 | LMTK2 | LYN | MAP2K1 | MAP2K2 | MAP4K2 | MAPK1 | MAPK4 | MAPKAPK2 | MKNK1 | NTRK2

CCOC(=O)C1=C[C@]2(CC)CCCN3CCc4c(n1c1ccccc41)[C@@H]32 [Vinpocetine] (10 µM)
0: FLT3 | FYN | GSK3A | HER2 | INSRR | IRAK3 | JAK1 | LCK | LIMK1 | LIMK2 | LMTK2 | LYN | MAP2K1 | MAP2K2 | MAP4K2 | MAPK1 | MAPK4 | MAPKAPK2 | MKNK1 | NTRK2

Later entries:

CCc1ccc(NC(=O)Nc2ccccc2)cc1 (10 µM)
0: FLT3 | FYN | GSK3A | HER2 | INSRR | IRAK3 | JAK1 | LCK | LIMK1 | LIMK2 | LYN | MAP2K1 | MAP2K2 | MAP4K2 | MAPK1 | MAPK4 | MAPKAPK2 | NTRK2
1: LMTK2 | MKNK1

Cn1c(=O)c(Oc2ccc(F)cc2F)cc2cnc(NC(CCO)CCO)nc21 [Pamapimod] (10 µM)
0: FLT3 | FYN | GSK3A | HER2 | INSRR | IRAK3 | JAK1 | LCK | LIMK1 | LIMK2 | LMTK2 | LYN | MAP2K1 | MAP2K2 | MAP4K2 | MAPK1 | MAPK4 | MAPKAPK2 | MKNK1 | NTRK2

C[C@@H]1CN(Cc2cn[nH]c2-c2ccc(C#N)cc2)CCN1c1ccc(C(F)(F)F)cn1 (2.5 µM)
0: FLT3 | FYN | GSK3A | HER2 | INSRR | IRAK3 | JAK1 | LCK | LIMK1 | LIMK2 | LMTK2 | LYN | MAP2K1 | MAP2K2 | MAP4K2 | MAPK1 | MAPK4 | MAPKAPK2 | MKNK1 | NTRK2

COc1ccc(-c2cnc3c(-c4cccc5ncccc45)cnn3c2)cc1 (10 µM)
0: FLT3 | FYN | GSK3A | HER2 | INSRR | IRAK3 | JAK1 | LCK | LIMK1 | LIMK2 | LMTK2 | LYN | MAP2K1 | MAP2K2 | MAP4K2 | MAPK1 | MAPK4 | MAPKAPK2 | MKNK1 | NTRK2

NC(=O)c1cccc2c(N[C@H](CN3CCC3)c3ccc(Cl)c(C(F)(F)F)c3)ncnc12 (10 µM)
0: FLT3 | FYN | GSK3A | HER2 | INSRR | IRAK3 | JAK1 | LCK | LIMK2 | LMTK2 | LYN | MAP2K1 | MAP2K2 | MAP4K2 | MAPK1 | MAPK4 | MAPKAPK2 | MKNK1 | NTRK2
4: LIMK1

Cc1ccc(-n2c(-c3ccc(O)cc3O)n[nH]c2=O)cc1 (10 µM)
2: LYN | MAPK4
5: FYN | HER2 | INSRR | JAK1
4: FLT3 | LIMK2 | LMTK2 | NTRK2
0: GSK3A | IRAK3 | LCK | LIMK1 | MAP2K1 | MAP2K2 | MAP4K2 | MAPK1 | MAPKAPK2 | MKNK1

Cc1nc(Nc2ncc(C(=O)Nc3c(C)cccc3Cl)s2)cc(N2CCN(C(=O)CCCCCCC(=O)N[C@H](C(=O)N3C[C@H](O)C[C@H]3C(=O)NCc3ccc(-c4scnc4C)cc3)C(C)(C)C)CC2)n1 (2.5 µM)
1: GSK3A | LMTK2 | MAPK1 | MAPK4 | MKNK1 | NTRK2
0: MAP2K1 | MAP2K2 | MAP4K2
2: HER2 | LCK | LIMK2 | LYN | MAPKAPK2
3: FLT3 | FYN | INSRR | IRAK3 | JAK1 | LIMK1

C[C@H]1CNC(=O)c2cnn3ccc(nc23)N[C@H](C)c2cc(F)ccc2O1 [Repotrectinib] (2.5 µM)
3: LIMK1
1: FYN | IRAK3 | LIMK2
2: INSRR
0: FLT3 | GSK3A | HER2 | JAK1 | LCK | LMTK2 | LYN | MAP2K1 | MAP2K2 | MAP4K2 | MAPK1 | MAPK4 | MAPKAPK2 | MKNK1 | NTRK2

CC(C)(O)c1cc2nc(-c3cnc(N)nc3)nc(N3CCOCC3)c2s1 (2.5 µM)
0: FLT3 | FYN | GSK3A | INSRR | JAK1 | LCK | LMTK2 | LYN | MAP2K1 | MAP2K2 | MAP4K2 | MAPK1 | MAPK4 | MAPKAPK2 | MKNK1 | NTRK2
4: LIMK1
2: IRAK3
3: LIMK2
1: HER2

Cn1cc(-c2cn3nccc3c(-c3cnn([C@]4(CC#N)C[C@@H](C#N)C4)c3)n2)cn1 (10 µM)
0: FLT3 | FYN | GSK3A | HER2 | INSRR | IRAK3 | JAK1 | LCK | LIMK1 | LIMK2 | LMTK2 | LYN | MAP2K1 | MAP2K2 | MAP4K2 | MAPK1 | MAPK4 | MAPKAPK2 | MKNK1 | NTRK2

CNC(=O)c1nnc(NC(=O)C2CC2)cc1Nc1cccc(-c2ncn(C)n2)c1OC [Deucravacitinib] (10 µM)
0: FLT3 | FYN | GSK3A | HER2 | INSRR | IRAK3 | JAK1 | LCK | LIMK1 | LIMK2 | LMTK2 | LYN | MAP2K1 | MAP2K2 | MAP4K2 | MAPK1 | MAPK4 | MAPKAPK2 | MKNK1 | NTRK2
